According to article PMC3182920:
Where a chain is given by its changes, count along the chain named. Results are given in words; binding and its absence hold for the method and conditions named. A result given as binding can be weak or reduced; the word gives no strength. Tags and fused reporters may be left off the sequences shown.

Tests used:
Test in all cases: ELISA; N1V-MBP proteins immobilised on a 96 well plate (10 µg/ml in PBS, overnight at 4°C); purified gD serially diluted in PBS-T milk; bound gD detected with polyclonal rabbit serum R8; both purified
N1V-MBP T66Q (human) = target: T1, N1V-MBP T66Q (human) (UniProt Q15223)
T1 sequence: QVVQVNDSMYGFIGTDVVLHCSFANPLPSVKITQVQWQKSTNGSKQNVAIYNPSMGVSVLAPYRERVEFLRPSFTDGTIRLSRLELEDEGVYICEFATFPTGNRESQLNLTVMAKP

N1V-MBP S84R (human) = target: T2, N1V-MBP S84R (human) (UniProt Q15223)
T2 sequence: T1 sequence with Q36T, S54R

N1V-MBP F129W (human) = target: T3, N1V-MBP F129W (human) (UniProt Q15223)
T3 sequence: T1 sequence with Q36T, F99W

Measured: binding

HSV-1 glycoprotein D ectodomain truncated at residue 306 (gD306t) (herpes simplex virus type 1) (domain or fragment)
binds: all assays above
